Laboratory results: PubChem BioAssay AID602196 (INSERM, 2012)
The whole screen tested about 23,000 reagents; below is a part drawn at random. In the full data, 455 (2%) got an active call. 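Active includes both protection and sensitisation; some change values fall well beyond the stated -50 to +50 range.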 Not all columns of the deposit are shown. Not stated in the record: the amount of reagent.

Test: 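Knock-downs that protect lung cancer cells from cisplatin or sensitise them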
System: human A549 lung cancer cells
Reagents: siRNA pair against human genes
Duration: 48 h transfection before cisplatin; time from cisplatin to read-out not stated
Treatment: cisplatin at a dose killing half of control-siRNA cells; exact dose and duration not given
Measurement: 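Shift in cisplatin death relative to control siRNA, from -50 (all cells die) to +50 (no cells die); siRNAs harmful on their own scored 0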
Scale: two-siRNA summed score (-2 to +2): higher = both siRNAs protect from cisplatin killing; -2 means both sensitise; mean protection from cisplatin (shift in death): higher = protection from cisplatin killing
Call rule: 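Each siRNA scores 0 if harmful alone by LDH or WST-1, otherwise +1 if it reduces and -1 if it increases cisplatin killing; a gene is active when both siRNAs agree (sum +2 or -2)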
Calls: active = both siRNAs shift cisplatin killing the same way; inactive = no consistent shift, or siRNA harmful alone

OR7E5P | two-siRNA summed score (-2 to +2): 0; mean protection from cisplatin (shift in death) (%): 2.7; call: inactive
LOC387943 | two-siRNA summed score (-2 to +2): 0; mean protection from cisplatin (shift in death) (%): -8.2; call: inactive
LOC440942 | two-siRNA summed score (-2 to +2): 1; mean protection from cisplatin (shift in death) (%): 15; call: inactive
FLJ34222 | two-siRNA summed score (-2 to +2): -1; mean protection from cisplatin (shift in death) (%): 1.8; call: inactive
TTC21A | two-siRNA summed score (-2 to +2): -1; mean protection from cisplatin (shift in death) (%): -5; call: inactive
LRRC1 | two-siRNA summed score (-2 to +2): 0; mean protection from cisplatin (shift in death) (%): 4.9; call: inactive
NEK2 | two-siRNA summed score (-2 to +2): 2; mean protection from cisplatin (shift in death) (%): 44.2; call: active
MAN1A2 | two-siRNA summed score (-2 to +2): 0; mean protection from cisplatin (shift in death) (%): 13.1; call: inactive
MTERF1 | two-siRNA summed score (-2 to +2): 1; mean protection from cisplatin (shift in death) (%): 1.7; call: inactive
SMCR8 | two-siRNA summed score (-2 to +2): 0; mean protection from cisplatin (shift in death) (%): -5.6; call: inactive
NCAM2 | two-siRNA summed score (-2 to +2): 0; mean protection from cisplatin (shift in death) (%): 8.2; call: inactive
SLC4A1 | two-siRNA summed score (-2 to +2): 0; mean protection from cisplatin (shift in death) (%): 2.7; call: inactive
SLC7A5P1 | two-siRNA summed score (-2 to +2): 1; mean protection from cisplatin (shift in death) (%): 8.9; call: inactive
CNGB1 | two-siRNA summed score (-2 to +2): 0; mean protection from cisplatin (shift in death) (%): -14.3; call: inactive
CACNA1I | two-siRNA summed score (-2 to +2): 0; mean protection from cisplatin (shift in death) (%): -0.4; call: inactive
CENATAC | two-siRNA summed score (-2 to +2): 2; mean protection from cisplatin (shift in death) (%): 12.6; call: active
C1QC | two-siRNA summed score (-2 to +2): 0; mean protection from cisplatin (shift in death) (%): -2; call: inactive

An excerpt of the results above, for reference:
LRRC1 | two-siRNA summed score (-2 to +2): 0; mean protection from cisplatin (shift in death) (%): 4.9; call: inactive
NEK2 | two-siRNA summed score (-2 to +2): 2; mean protection from cisplatin (shift in death) (%): 44.2; call: active
MAN1A2 | two-siRNA summed score (-2 to +2): 0; mean protection from cisplatin (shift in death) (%): 13.1; call: inactive
MTERF1 | two-siRNA summed score (-2 to +2): 1; mean protection from cisplatin (shift in death) (%): 1.7; call: inactive
SMCR8 | two-siRNA summed score (-2 to +2): 0; mean protection from cisplatin (shift in death) (%): -5.6; call: inactive
NCAM2 | two-siRNA summed score (-2 to +2): 0; mean protection from cisplatin (shift in death) (%): 8.2; call: inactive
SLC4A1 | two-siRNA summed score (-2 to +2): 0; mean protection from cisplatin (shift in death) (%): 2.7; call: inactive

Further results follow:
GTF2H3 | two-siRNA summed score (-2 to +2): 0; mean protection from cisplatin (shift in death) (%): 3.6; call: inactive
ANO8 | two-siRNA summed score (-2 to +2): 0; mean protection from cisplatin (shift in death) (%): -5.8; call: inactive
ENPP3 | two-siRNA summed score (-2 to +2): -1; mean protection from cisplatin (shift in death) (%): -0.6; call: inactive
FRMPD3 | two-siRNA summed score (-2 to +2): 0; mean protection from cisplatin (shift in death) (%): 12.2; call: inactive
CCNP | two-siRNA summed score (-2 to +2): 0; mean protection from cisplatin (shift in death) (%): 11; call: inactive
ACVR1 | two-siRNA summed score (-2 to +2): 1; mean protection from cisplatin (shift in death) (%): 9.7; call: inactive
RBM25 | two-siRNA summed score (-2 to +2): 0; mean protection from cisplatin (shift in death) (%): 3.6; call: inactive
KRIT1 | two-siRNA summed score (-2 to +2): -1; mean protection from cisplatin (shift in death) (%): -4.6; call: inactive
CATIP | two-siRNA summed score (-2 to +2): 0; mean protection from cisplatin (shift in death) (%): 13.7; call: inactive
SFRP4 | two-siRNA summed score (-2 to +2): 0; mean protection from cisplatin (shift in death) (%): 9.2; call: inactive
MTMR3 | two-siRNA summed score (-2 to +2): 0; mean protection from cisplatin (shift in death) (%): 8.2; call: inactive
RSL1D1 | two-siRNA summed score (-2 to +2): 1; mean protection from cisplatin (shift in death) (%): 26.7; call: inactive
RBM7 | two-siRNA summed score (-2 to +2): 1; mean protection from cisplatin (shift in death) (%): 8.5; call: inactive
CLCF1 | two-siRNA summed score (-2 to +2): 0; mean protection from cisplatin (shift in death) (%): 8.7; call: inactive
USP9X | two-siRNA summed score (-2 to +2): -1; mean protection from cisplatin (shift in death) (%): -13.2; call: inactive
NRBP2 | two-siRNA summed score (-2 to +2): 1; mean protection from cisplatin (shift in death) (%): 3.6; call: inactive
LIN52 | two-siRNA summed score (-2 to +2): 1; mean protection from cisplatin (shift in death) (%): 6.1; call: inactive
DACT2 | two-siRNA summed score (-2 to +2): 0; mean protection from cisplatin (shift in death) (%): -6.2; call: inactive
MBTD1 | two-siRNA summed score (-2 to +2): 0; mean protection from cisplatin (shift in death) (%): 7.9; call: inactive
RYBP | two-siRNA summed score (-2 to +2): 0; mean protection from cisplatin (shift in death) (%): -1.3; call: inactive
SIX6 | two-siRNA summed score (-2 to +2): 0; mean protection from cisplatin (shift in death) (%): -1.5; call: inactive
ELOVL7 | two-siRNA summed score (-2 to +2): 0; mean protection from cisplatin (shift in death) (%): -0.2; call: inactive
LOC400298 | two-siRNA summed score (-2 to +2): 1; mean protection from cisplatin (shift in death) (%): 15.5; call: inactive
